No constants are given. Whether binding was seen depends on the method and setting. Binding seen in cells or lysates may run through a third protein. Here binding means that the protein was enriched with, or labelled near, the bait; the list need not be complete.
B1: Charged multivesicular body protein 2a (protein, UniProt O43633 1-222)
chain: MDLLFGRRKTPEELLRQNQRALNRAMRELDRERQKLETQEKKIIADIKKMAKQGQMDAVRIMAKDLVRTRRYVRKFVLMRANIQAVSLKIQTLKSNNSMAQAMKGVTKAMGTMNRQLKLPQIQKIMMEFERQAEIMDMKEEMMNDAIDDAMGDEEDEEESDAVVSQVLDELGLSLTDELSNLPSTGGSLSVAAGGKKAEAAASALADADADLEERLKNLRRD
B2: gp180-carboxypeptidase D-like enzyme (enzyme, UniProt O75976 32-1380)
chain: AHIKKAEATTTTTSAGAEAAEGQFDRYYHEEELESALREAAAAGLPGLARLFSIGRSVEGRPLWVLRLTAGLGSLIPEGDAGPDAAGPDAAGPLLPGRPQVKLVGNMHGDETVSRQVLIYLARELAAGYRRGDPRLVRLLNTTDVYLLPSLNPDGFERAREGDCGFGDGGPSGASGRDNSRGRDLNRSFPDQFSTGEPPALDEVPEVRALIEWIRRNKFVLSGNLHGGSVVASYPFDDSPEHKATGIYSKTSDDEVFKYLAKAYASNHPIMKTGEPHCPGDEDETFKDGITNGAHWYDVEGGMQDYNYVWANCFEITLELSCCKYPPASQLRQEWENNRESLITLIEKVHIGVKGFVKDSITGSGLENATISVAGINHNITTGRFGDFYRLLVPGTYNLTVVLTGYMPLTVTNVVVKEGPATEVDFSLRPTVTSVIPDTTEAVSTASTVAIPNILSGTSSSYQPIQPKDFHHHHFPDMEIFLRRFANEYPNITRLYSLGKSVESRELYVMEISDNPGVHEPGEPEFKYIGNMHGNEVVGRELLLNLIEYLCKNFGTDPEVTDLVHNTRIHLMPSMNPDGYEKSQEGDSISVIGRNNSNNFDLNRNFPDQFVQITDPTQPETIAVMSWMKSYPFVLSANLHGGSLVVNYPFDDDEQGLATYSKSPDDAVFQQIALSYSKENSQMFQGRPCKNMYPNEYFPHGITNGASWYNVPGGMQDWNYLQTNCFEVTIELGCVKYPLEKELPNFWEQNRRSLIQFMKQVHQGVRGFVLDATDGRGILNATISVAEINHPVTTYKTGDYWRLLVPGTYKITASARGYNPVTKNVTVKSEGAIQVNFTLVRSSTDSNNESKKGKGASSSTNDASDPTTKEFETLIKDLSAENGLESLMLRSSSNLALALYRYHSYKDLSEFLRGLVMNYPHITNLTNLGQSTEYRHIWSLEISNKPNVSEPEEPKIRFVAGIHGNAPVGTELLLALAEFLCLNYKKNPAVTQLVDRTRIVIVPSLNPDGRERAQEKDCTSKIGQTNARGKDLDTDFTNNASQPETKAIIENLIQKQDFSLSVALDGGSMLVTYPYDKPVQTVENKETLKHLASLYANNHPSMHMGQPSCPNKSDENIPGGVMRGAEWHSHLGSMKDYSVTYGHCPEITVYTSCCYFPSAARLPSLWADNKRSLLSMLVEVHKGVHGFVKDKTGKPISKAVIVLNEGIKVQTKEGGYFHVLLAPGVHNIIAIADGYQQQHSQVFVHHDAASSVVIVFDTDNRIFGLPRELVVTVSGATMSALILTACIIWCICSIKSNRHKDGFHRLRQHHDEYEDEIRMMSTGSKKSLLSHEFQDETDTEEETLYSSKH
B3: Myosin regulatory light chain 12A (protein, UniProt P19105 1-171)
chain: MSSKRTKTKTKKRPQRATSNVFAMFDQSQIQEFKEAFNMIDQNRDGFIDKEDLHDMLASLGKNPTDEYLDAMMNEAPGPINFTMFLTMFGEKLNGTDPEDVIRNAFACFDEEATGTIQEDYLRELLTTMGDRFTDEEVDELYREAPIDKKGNFNYIEFTRILKHGAKDKDD
B4: Heavy neurofilament subunit (protein, UniProt P12036 1-1020)
chain: MMSFGGADALLGAPFAPLHGGGSLHYALARKGGAGGTRSAAGSSSGFHSWTRTSVSSVSASPSRFRGAGAASSTDSLDTLSNGPEGCMVAVATSRSEKEQLQALNDRFAGYIDKVRQLEAHNRSLEGEAAALRQQQAGRSAMGELYEREVREMRGAVLRLGAARGQLRLEQEHLLEDIAHVRQRLDDEARQREEAEAAARALARFAQEAEAARVDLQKKAQALQEECGYLRRHHQEEVGELLGQIQGSGAAQAQMQAETRDALKCDVTSALREIRAQLEGHAVQSTLQSEEWFRVRLDRLSEAAKVNTDAMRSAQEEITEYRRQLQARTTELEALKSTKDSLERQRSELEDRHQADIASYQEAIQQLDAELRNTKWEMAAQLREYQDLLNVKMALDIEIAAYRKLLEGEECRIGFGPIPFSLPEGLPKIPSVSTHIKVKSEEKIKVVEKSEKETVIVEEQTEETQVTEEVTEEEEKEAKEEEGKEEEGGEEEEAEGGEEETKSPPAEEAASPEKEAKSPVKEEAKSPAEAKSPEKEEAKSPAEVKSPEKAKSPAKEEAKSPPEAKSPEKEEAKSPAEVKSPEKAKSPAKEEAKSPAEAKSPEKAKSPVKEEAKSPAEAKSPVKEEAKSPAEVKSPEKAKSPTKEEAKSPEKAKSPEKEEAKSPEKAKSPVKAEAKSPEKAKSPVKAEAKSPEKAKSPVKEEAKSPEKAKSPVKEEAKSPEKAKSPVKEEAKTPEKAKSPVKEEAKSPEKAKSPEKAKTLDVKSPEAKTPAKEEARSPADKFPEKAKSPVKEEVKSPEKAKSPLKEDAKAPEKEIPKKEEVKSPVKEEEKPQEVKVKEPPKKAEEEKAPATPKTEEKKDSKKEEAPKKEAPKPKVEEKKEPAVEKPKESKVEAKKEEAEDKKKVPTPEKEAPAKVEVKEDAKPKEKTEVAKKEPDDAKAKEPSKPAEKKEAAPEKKDTKEEKAKKPEEKPKTEAKAKEDDKTLSKEPSKPKAEKAEKSSSTDQKDSKPPEKATEDKAAKGK

The chains behind the UniProt entries cited, without tags or fusion partners. Where a name states a change or a piece, a line headed by the entry shows the natural chain unless it says otherwise. Residues count along the entry.
UniProt Q96QP1: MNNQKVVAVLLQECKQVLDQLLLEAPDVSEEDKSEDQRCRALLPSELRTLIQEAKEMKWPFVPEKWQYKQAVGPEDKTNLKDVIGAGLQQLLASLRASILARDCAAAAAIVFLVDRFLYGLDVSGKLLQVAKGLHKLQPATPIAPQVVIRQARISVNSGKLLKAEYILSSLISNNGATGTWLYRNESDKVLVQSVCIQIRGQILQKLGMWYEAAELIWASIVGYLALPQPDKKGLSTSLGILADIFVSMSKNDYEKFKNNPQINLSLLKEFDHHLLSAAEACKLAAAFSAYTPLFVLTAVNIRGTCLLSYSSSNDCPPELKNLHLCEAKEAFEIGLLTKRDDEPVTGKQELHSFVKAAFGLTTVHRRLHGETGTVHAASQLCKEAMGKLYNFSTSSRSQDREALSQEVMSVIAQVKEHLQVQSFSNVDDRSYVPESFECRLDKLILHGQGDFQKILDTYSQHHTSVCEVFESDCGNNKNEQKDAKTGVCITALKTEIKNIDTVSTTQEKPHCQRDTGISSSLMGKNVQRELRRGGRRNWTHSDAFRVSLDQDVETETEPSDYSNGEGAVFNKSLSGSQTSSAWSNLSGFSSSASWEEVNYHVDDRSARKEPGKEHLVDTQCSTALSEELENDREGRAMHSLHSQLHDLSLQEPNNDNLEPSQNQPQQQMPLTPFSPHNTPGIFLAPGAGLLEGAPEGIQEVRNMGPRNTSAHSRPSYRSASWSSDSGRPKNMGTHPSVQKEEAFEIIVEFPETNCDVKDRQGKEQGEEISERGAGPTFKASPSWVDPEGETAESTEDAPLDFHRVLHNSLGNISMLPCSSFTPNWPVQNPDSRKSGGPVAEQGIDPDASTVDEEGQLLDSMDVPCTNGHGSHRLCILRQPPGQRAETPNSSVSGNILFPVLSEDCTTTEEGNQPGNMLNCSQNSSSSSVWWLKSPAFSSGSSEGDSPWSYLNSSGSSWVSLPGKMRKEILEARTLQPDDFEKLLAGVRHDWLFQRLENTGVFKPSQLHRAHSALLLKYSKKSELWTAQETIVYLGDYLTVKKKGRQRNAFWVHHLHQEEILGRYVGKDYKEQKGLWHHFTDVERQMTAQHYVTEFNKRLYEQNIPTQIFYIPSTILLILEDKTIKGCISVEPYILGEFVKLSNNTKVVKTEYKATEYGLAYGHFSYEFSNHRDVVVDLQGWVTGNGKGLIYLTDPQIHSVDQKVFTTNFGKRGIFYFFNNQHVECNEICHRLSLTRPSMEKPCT
HA-ALPK1 N-terminal (Nt, 1-569 a.a.): residues 1-569 of Q96QP1
HA-ALPK1 Nt1 (1-271 a.a.): residues 1-271 of Q96QP1
HA-ALPK1 Nt2 (249-569 a.a.): residues 249-569 of Q96QP1
HA-ALPK1 middle region (mid, 432-961 a.a.): residues 432-961 of Q96QP1
HA-ALPK1 C-terminal region (Ct, 950-1244 a.a.): residues 950-1244 of Q96QP1
UniProt Q6S8J3: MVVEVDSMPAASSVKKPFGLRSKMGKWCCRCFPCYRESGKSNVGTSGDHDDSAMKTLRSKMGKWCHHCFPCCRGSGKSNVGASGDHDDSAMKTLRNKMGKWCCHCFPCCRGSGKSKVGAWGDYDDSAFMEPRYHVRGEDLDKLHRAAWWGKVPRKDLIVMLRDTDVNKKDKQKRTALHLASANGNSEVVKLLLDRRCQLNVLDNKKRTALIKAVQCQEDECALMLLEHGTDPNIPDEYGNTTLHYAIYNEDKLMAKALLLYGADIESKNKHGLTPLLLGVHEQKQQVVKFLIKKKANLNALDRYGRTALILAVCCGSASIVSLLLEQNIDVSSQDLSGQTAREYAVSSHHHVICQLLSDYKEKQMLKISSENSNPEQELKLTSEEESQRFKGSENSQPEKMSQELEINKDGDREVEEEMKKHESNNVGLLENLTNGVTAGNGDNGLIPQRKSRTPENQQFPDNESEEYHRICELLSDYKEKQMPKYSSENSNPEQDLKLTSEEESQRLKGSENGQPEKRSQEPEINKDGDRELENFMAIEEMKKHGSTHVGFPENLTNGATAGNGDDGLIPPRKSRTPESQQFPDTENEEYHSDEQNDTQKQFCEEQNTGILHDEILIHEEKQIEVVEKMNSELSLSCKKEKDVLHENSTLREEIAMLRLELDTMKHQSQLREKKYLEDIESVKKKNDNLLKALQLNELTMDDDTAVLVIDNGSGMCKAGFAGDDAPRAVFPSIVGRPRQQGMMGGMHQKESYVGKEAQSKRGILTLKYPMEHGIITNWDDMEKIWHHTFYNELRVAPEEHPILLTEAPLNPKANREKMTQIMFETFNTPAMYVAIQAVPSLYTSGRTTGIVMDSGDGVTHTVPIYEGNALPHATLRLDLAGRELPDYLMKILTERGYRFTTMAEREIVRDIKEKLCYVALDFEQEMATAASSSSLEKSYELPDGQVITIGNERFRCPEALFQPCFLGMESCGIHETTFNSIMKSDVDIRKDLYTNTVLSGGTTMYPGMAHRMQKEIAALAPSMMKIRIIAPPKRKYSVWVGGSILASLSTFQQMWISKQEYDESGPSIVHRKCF
UniProt P62136: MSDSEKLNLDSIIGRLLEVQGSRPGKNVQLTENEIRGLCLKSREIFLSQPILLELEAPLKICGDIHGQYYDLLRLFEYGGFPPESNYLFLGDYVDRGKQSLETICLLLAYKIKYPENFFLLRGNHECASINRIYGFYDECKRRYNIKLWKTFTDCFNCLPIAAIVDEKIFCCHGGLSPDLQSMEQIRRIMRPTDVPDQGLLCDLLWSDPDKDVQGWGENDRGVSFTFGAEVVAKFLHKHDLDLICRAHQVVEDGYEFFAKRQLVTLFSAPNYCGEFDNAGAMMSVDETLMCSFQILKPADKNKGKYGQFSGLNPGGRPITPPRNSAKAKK
UniProt Q9P0M2: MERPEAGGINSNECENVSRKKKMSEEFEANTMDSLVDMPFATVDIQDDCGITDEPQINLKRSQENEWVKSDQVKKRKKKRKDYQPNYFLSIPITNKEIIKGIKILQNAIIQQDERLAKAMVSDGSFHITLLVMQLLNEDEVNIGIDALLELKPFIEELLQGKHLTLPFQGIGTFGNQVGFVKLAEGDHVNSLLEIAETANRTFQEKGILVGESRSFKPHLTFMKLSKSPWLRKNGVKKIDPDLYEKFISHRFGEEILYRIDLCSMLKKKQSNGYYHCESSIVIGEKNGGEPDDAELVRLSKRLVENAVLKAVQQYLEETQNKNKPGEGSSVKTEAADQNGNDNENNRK
UniProt O43150: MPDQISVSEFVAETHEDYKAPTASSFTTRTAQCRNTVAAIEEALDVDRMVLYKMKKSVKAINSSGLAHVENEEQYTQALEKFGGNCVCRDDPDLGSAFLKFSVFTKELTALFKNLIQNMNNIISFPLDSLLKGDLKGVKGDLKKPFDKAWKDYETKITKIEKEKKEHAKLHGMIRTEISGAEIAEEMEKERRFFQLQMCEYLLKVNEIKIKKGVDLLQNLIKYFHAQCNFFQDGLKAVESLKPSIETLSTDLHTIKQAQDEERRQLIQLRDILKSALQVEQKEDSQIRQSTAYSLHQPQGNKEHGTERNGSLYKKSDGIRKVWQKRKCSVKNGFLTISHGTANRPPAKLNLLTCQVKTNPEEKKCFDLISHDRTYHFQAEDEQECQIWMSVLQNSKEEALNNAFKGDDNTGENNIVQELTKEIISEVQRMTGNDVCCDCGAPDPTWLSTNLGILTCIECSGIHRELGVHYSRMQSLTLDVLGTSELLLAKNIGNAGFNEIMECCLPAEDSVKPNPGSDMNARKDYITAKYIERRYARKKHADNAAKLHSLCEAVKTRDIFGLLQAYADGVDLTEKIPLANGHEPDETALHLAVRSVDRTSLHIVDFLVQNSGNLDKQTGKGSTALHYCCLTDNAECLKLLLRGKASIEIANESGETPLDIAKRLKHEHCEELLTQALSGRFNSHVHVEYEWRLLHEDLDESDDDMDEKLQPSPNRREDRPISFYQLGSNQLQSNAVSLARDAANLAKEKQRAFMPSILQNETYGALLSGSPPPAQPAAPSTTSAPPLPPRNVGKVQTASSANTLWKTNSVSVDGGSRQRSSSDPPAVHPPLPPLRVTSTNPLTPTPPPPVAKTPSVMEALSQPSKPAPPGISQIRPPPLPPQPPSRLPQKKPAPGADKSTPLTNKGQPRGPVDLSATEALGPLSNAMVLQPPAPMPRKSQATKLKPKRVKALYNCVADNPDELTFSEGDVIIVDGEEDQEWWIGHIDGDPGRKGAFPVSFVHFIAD
UniProt P35579: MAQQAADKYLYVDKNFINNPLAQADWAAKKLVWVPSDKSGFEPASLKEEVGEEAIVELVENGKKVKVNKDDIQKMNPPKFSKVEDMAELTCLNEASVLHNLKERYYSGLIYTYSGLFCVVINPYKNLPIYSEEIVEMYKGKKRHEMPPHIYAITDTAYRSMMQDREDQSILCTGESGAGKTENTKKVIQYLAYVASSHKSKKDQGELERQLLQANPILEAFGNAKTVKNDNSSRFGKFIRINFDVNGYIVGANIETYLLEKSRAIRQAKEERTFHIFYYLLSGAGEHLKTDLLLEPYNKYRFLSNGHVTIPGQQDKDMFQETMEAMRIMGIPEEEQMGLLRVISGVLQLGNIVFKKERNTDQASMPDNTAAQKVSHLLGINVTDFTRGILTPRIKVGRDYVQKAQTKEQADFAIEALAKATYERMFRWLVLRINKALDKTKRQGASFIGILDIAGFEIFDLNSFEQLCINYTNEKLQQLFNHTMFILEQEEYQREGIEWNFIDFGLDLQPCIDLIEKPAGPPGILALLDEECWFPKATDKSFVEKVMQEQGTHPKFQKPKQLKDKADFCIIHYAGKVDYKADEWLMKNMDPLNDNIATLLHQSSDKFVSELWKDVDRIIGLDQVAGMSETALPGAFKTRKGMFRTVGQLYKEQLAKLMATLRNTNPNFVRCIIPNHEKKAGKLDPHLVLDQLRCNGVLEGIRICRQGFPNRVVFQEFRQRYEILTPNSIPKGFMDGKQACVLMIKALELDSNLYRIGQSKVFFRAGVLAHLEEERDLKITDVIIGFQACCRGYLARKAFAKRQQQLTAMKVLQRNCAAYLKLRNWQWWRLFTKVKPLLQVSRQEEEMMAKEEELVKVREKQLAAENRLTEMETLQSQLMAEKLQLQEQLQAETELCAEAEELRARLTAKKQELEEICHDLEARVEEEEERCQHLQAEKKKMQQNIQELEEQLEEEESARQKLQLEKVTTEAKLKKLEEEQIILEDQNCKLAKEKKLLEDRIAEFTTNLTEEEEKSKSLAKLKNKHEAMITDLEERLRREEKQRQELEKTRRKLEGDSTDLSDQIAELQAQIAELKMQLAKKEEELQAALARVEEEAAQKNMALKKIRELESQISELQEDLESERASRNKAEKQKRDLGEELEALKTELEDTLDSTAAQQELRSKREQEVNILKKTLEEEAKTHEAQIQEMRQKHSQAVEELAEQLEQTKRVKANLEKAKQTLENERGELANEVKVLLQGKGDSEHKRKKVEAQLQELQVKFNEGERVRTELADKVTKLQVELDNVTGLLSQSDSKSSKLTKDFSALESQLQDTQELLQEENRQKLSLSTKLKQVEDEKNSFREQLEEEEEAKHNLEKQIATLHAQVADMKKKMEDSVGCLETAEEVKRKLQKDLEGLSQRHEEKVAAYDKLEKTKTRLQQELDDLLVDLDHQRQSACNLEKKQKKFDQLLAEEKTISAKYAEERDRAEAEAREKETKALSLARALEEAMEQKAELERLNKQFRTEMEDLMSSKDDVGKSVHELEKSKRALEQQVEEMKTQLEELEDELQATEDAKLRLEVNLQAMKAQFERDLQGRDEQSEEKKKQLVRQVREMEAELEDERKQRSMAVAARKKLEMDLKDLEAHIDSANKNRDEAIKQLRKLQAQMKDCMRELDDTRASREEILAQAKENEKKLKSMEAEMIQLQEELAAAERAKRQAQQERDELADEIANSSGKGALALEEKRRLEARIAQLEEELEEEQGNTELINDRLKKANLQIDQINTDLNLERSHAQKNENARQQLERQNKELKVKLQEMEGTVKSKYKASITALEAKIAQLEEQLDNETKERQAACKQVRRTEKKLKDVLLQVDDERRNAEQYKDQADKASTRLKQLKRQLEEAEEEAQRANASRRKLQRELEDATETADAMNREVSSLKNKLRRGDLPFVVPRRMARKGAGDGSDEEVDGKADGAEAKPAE
UniProt P47756: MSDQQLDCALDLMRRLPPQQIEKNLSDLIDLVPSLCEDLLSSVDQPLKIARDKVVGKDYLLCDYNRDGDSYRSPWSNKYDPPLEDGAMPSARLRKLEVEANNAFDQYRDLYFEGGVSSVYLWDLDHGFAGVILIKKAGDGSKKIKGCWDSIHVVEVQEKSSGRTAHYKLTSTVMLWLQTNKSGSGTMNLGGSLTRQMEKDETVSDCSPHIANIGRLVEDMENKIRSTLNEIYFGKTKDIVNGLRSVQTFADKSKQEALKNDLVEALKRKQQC

The molecules below were run against HA-ALPK1 C-terminal region (Ct, 950-1244 a.a.) (human) (UniProt Q96QP1) (assay: affinity purification with mass spectrometry; immunoprecipitation of HA-ALPK1 FL and five truncated forms (Nt, Nt1, Nt2, Mid, Ct), cellular proteins identified by LC/MS/MS; three replicates for each form).

binding, binds:
POTE ankyrin domain family member E (from UniProt Q6S8J3 1-1075)
Protein phosphatase I alpha subunit partial (from UniProt P62136 1-330)
A-kinase anchoring protein 18 gamma (from UniProt Q9P0M2 1-348)
Arf-GAP with SH3 domain, ANK repeat and PH domain-containing protein 2 isoform a (from UniProt O43150 1-1006)
B1
B2
B3
B4

These molecules were tested against HA-ALPK1 N-terminal (Nt, 1-569 a.a.) (human) (UniProt Q96QP1) in the same assay as above.

binding, binds:
Myosin-9 (endogenous myosin IIA) (from UniProt P35579 1-1960)
F-actin-capping protein subunit beta isoform 1 (from UniProt P47756 1-272)
POTE ankyrin domain family member E (from UniProt Q6S8J3 1-1075)
Arf-GAP with SH3 domain, ANK repeat and PH domain-containing protein 2 isoform a (from UniProt O43150 1-1006)
B2
B4

These molecules were tested against HA-ALPK1 Nt1 (1-271 a.a.) (human) (UniProt Q96QP1) in the same assay as above.

binding, binds:
Myosin-9 (endogenous myosin IIA) (from UniProt P35579 1-1960)
F-actin-capping protein subunit beta isoform 1 (from UniProt P47756 1-272)
POTE ankyrin domain family member E (from UniProt Q6S8J3 1-1075)
Arf-GAP with SH3 domain, ANK repeat and PH domain-containing protein 2 isoform a (from UniProt O43150 1-1006)
B1
B2
B3
B4

Each molecule was assayed against HA-ALPK1 Nt2 (249-569 a.a.) (human) (UniProt Q96QP1) in the same assay as above.

binding, binds:
Arf-GAP with SH3 domain, ANK repeat and PH domain-containing protein 2 isoform a (from UniProt O43150 1-1006)
B1
B2
B3

Each molecule was assayed against HA-ALPK1 full-length (FL, 1-1244 a.a.) (human) (UniProt Q96QP1) in the same assay as above.

binding, binds:
Myosin-9 (endogenous myosin IIA) (from UniProt P35579 1-1960)
F-actin-capping protein subunit beta isoform 1 (from UniProt P47756 1-272)
POTE ankyrin domain family member E (from UniProt Q6S8J3 1-1075)
Protein phosphatase I alpha subunit partial (from UniProt P62136 1-330)
A-kinase anchoring protein 18 gamma (from UniProt Q9P0M2 1-348)
Arf-GAP with SH3 domain, ANK repeat and PH domain-containing protein 2 isoform a (from UniProt O43150 1-1006)
B1
B2
B3
B4

Each molecule was assayed against HA-ALPK1 middle region (mid, 432-961 a.a.) (human) (UniProt Q96QP1) in the same assay as above.

binding, binds:
POTE ankyrin domain family member E (from UniProt Q6S8J3 1-1075)
A-kinase anchoring protein 18 gamma (from UniProt Q9P0M2 1-348)
B1
B2
B3
B4

These molecules were tested against Halo-ALPK1 full-length (FL) recombinant protein (human) (UniProt Q96QP1) (assay: affinity purification with mass spectrometry; Halo-tagged ALPK1 purified from 293F incubated overnight with 300 ug THP-1 protein lysate, HaloLink resin 4 C 4 h, washed with lysis buffer with 0.01% tween-20, eluted by TEV protease cleavage, UPLC-MS/MS; five independent experiments; only the target purified).

binding, binds:
Myosin-9 (endogenous myosin IIA) (from UniProt P35579 1-1960)
F-actin-capping protein subunit beta isoform 1 (from UniProt P47756 1-272)
POTE ankyrin domain family member E (from UniProt Q6S8J3 1-1075)
Protein phosphatase I alpha subunit partial (from UniProt P62136 1-330)
A-kinase anchoring protein 18 gamma (from UniProt Q9P0M2 1-348)
Arf-GAP with SH3 domain, ANK repeat and PH domain-containing protein 2 isoform a (from UniProt O43150 1-1006)
B1
B2
B3
B4
